Test results as given in PubChem BioAssay AID248 (DTP/NCI, 2004).
The list is a part of this screen's results and no random one: it gathers some chemical classes. Not every dose and run of a compound is shown. T/C: endpoint of the treated group in % of that of the vehicle group. Some entries give survivors of the animals treated and no T/C: the source files T/C as zero there, which appears to mark a toxic dose or a test without result, not a measured value. Some survivor counts are full or nearly so, which does not show that the dose was tolerated: the source hardly ever lists a survival T/C far under the control, and the zero likely stands for such cases as well. Counts of survivors are from the toxicity check (mostly the fifth day) where no day follows; animals may have died later. Schedule codes are those of the source, taken here to give the interval after Q, in days (D) or hours (H), and the number of doses after X. Some schedule codes hold Z or #, which are not explained here. Where survival is the endpoint, the PubChem record calls one and a half times the control and up active, and a quarter to a half above the control has no call in these data; cut-offs in other NCI protocols can differ. Some doses were run more than once; the values are given in rising order. Some T/C values carry the count of animals alive at the toxicity check (mostly the fifth day); without a count or a note in brackets, all were alive then. Some T/C values are marked as having no survivor count here; that says nothing about deaths at the dose.

System: L1210 leukemia ip in BDF1 mice, survival T/C
Assay: NCI In Vivo Anticancer Drug Screen. Data for tumor model L1210 Leukemia (intraperitoneal) in B6D2F1 (BDF1) mice
Conditions: T/C endpoint: mean survival time, higher T/C = longer survival
[1] = dose: 100.0 mg/kg/injection, schedule: Q01DX001 (ip), vehicle: carboxymethylcellulose (CMC)
[2] = dose: 100.0 mg/kg/injection, schedule: Q04DX002 (ip), vehicle: Klucel (hydroxypropylcellulose) (HPC)
[3] = dose: 200.0 mg/kg/injection, schedule: Q01DX001 (ip), vehicle: carboxymethylcellulose (CMC)
[4] = dose: 400.0 mg/kg/injection, schedule: Q01DX001 (ip), vehicle: carboxymethylcellulose (CMC)
[5] = dose: 75.0 mg/kg/injection, schedule: Q01DX001 (ip), vehicle: saline

Structure (SMILES): O=C(O)CCc1cccc(N(CCCl)CCCl)c1
- T/C (dose: 2.0 mg/kg/injection, schedule: Q01DX Z (ip), vehicle: saline): 101 % of control
- T/C (dose: 3.0 mg/kg/injection, schedule: Q01DX Z (ip), vehicle: methylcellulose (MC)): 106 % of control
- T/C (dose: 4.0 mg/kg/injection, schedule: Q01DX Z (ip), vehicle: saline): 97 % of control
- T/C (dose: 6.0 mg/kg/injection, schedule: Q01DX Z (ip), vehicle: methylcellulose (MC)): 91 % of control
- T/C (dose: 8.0 mg/kg/injection, schedule: Q01DX Z (ip), vehicle: methylcellulose (MC)): 109 % of control
- T/C (dose: 8.0 mg/kg/injection, schedule: Q01DX Z (ip), vehicle: saline): 101 % of control
- T/C (dose: 11.0 mg/kg/injection, schedule: Q01DX Z (ip), vehicle: carboxymethylcellulose (CMC)): 105 % of control
- T/C (dose: 12.0 mg/kg/injection, schedule: Q01DX Z (ip), vehicle: methylcellulose (MC)): 87 [5 of 6 alive] and 112 % of control
- T/C (dose: 17.0 mg/kg/injection, schedule: Q01DX Z (ip), vehicle: carboxymethylcellulose (CMC)): 114 % of control
- T/C (dose: 18.0 mg/kg/injection, schedule: Q01DX Z (ip), vehicle: methylcellulose (MC)): 115 % of control
- T/C (dose: 24.0 mg/kg/injection, schedule: Q01DX Z (ip), vehicle: methylcellulose (MC)): 126 % of control [5 of 6 alive]
- T/C (dose: 24.0 mg/kg/injection, schedule: Q01DX Z (ip), vehicle: saline): 112 and 125 % of control
- T/C (dose: 25.0 mg/kg/injection, schedule: Q04DX002 (ip), vehicle: Klucel (hydroxypropylcellulose) (HPC)): 111 % of control
- T/C (dose: 26.0 mg/kg/injection, schedule: Q01DX Z (ip), vehicle: carboxymethylcellulose (CMC)): 114 % of control
- T/C (dose: 27.0 mg/kg/injection, schedule: Q01DX Z (ip), vehicle: methylcellulose (MC)): 113 % of control [5 of 6 alive]
- T/C (dose: 36.0 mg/kg/injection, schedule: Q01DX Z (ip), vehicle: saline): 118 and 134 % of control
- T/C (dose: 40.0 mg/kg/injection, schedule: Q01DX Z (ip), vehicle: carboxymethylcellulose (CMC)): 117 and 132 % of control
- survivor count (dose: 48.0 mg/kg/injection, schedule: Q01DX Z (ip), vehicle: methylcellulose (MC)): 2 of 6
- T/C (dose: 50.0 mg/kg/injection, schedule: Q04DX002 (ip), vehicle: Klucel (hydroxypropylcellulose) (HPC)): 108 % of control
- T/C (dose: 54.0 mg/kg/injection, schedule: Q01DX Z (ip), vehicle: saline): 150 % of control
- survivor count (dose: 60.0 mg/kg/injection, schedule: Q01DX Z (ip), vehicle: carboxymethylcellulose (CMC)): 3 of 6
- survivor count (dose: 72.0 mg/kg/injection, schedule: Q01DX Z (ip), vehicle: saline): 0 of 6
- survivor count (dose: 90.0 mg/kg/injection, schedule: Q01DX Z (ip), vehicle: carboxymethylcellulose (CMC)): 0 of 6
- T/C [1]: 117 % of control
- T/C [2]: 99 % of control [2 of 3 alive]
- survivor count [2]: 0 of 3
- survivor count [3]: 0 of 4
- survivor count (dose: 200.0 mg/kg/injection, schedule: Q04DX002 (ip), vehicle: Klucel (hydroxypropylcellulose) (HPC)): 0 of 3
- survivor count [4]: 0 of 4
- survivor count (dose: 400.0 mg/kg/injection, schedule: Q04DX002 (ip), vehicle: Klucel (hydroxypropylcellulose) (HPC)): 0 of 3

Structure (SMILES): Clc1ccc(SC2CCCC2Cl)cc1 (configuration not stated)
- T/C [1]: 98 % of control
- T/C [3]: 88 % of control
- T/C [4]: 93 % of control

Structure (SMILES): CC1(C)CC[P+](c2ccccc2)(c2ccccc2)c2ccccc21.F[P-](F)(F)(F)(F)F
- T/C (dose: 12.5 mg/kg/injection, schedule: Q01DX009 (ip), vehicle: saline with Tween-80): 108 % of control
- T/C (dose: 25.0 mg/kg/injection, schedule: Q01DX009 (ip), vehicle: saline with Tween-80): 108 % of control
- T/C (dose: 50.0 mg/kg/injection, schedule: Q01DX009 (ip), vehicle: saline with Tween-80): 100 [2 of 3 alive] and 105 % of control
- survivor count (dose: 100.0 mg/kg/injection, schedule: Q01DX009 (ip), vehicle: saline with Tween-80): 0 of 3
- survivor count (dose: 200.0 mg/kg/injection, schedule: Q01DX009 (ip), vehicle: saline with Tween-80): 0 of 3

Structure (SMILES): CCCCCCCCP(=O)(Cl)CC (configuration not stated)
- T/C [5]: 93 % of control
- T/C (dose: 150.0 mg/kg/injection, schedule: Q01DX001 (ip), vehicle: saline): 91 % of control
- survivor count (dose: 300.0 mg/kg/injection, schedule: Q01DX001 (ip), vehicle: saline): 0 of 6

Structure (SMILES): NC1CCCCC1.O=C(O)CCOP(=O)(O)N(CCCl)CCCl
- T/C (dose: 12.5 mg/kg/injection, schedule: Q01DX001 (ip), vehicle: saline): 95 % of control
- T/C (dose: 25.0 mg/kg/injection, schedule: Q01DX001 (ip), vehicle: saline): 91 % of control
- T/C (dose: 50.0 mg/kg/injection, schedule: Q01DX001 (ip), vehicle: saline): 97 % of control
- T/C (dose: 88.0 mg/kg/injection, schedule: Q04DX003 (ip), vehicle: saline): 111 % of control
- T/C (dose: 100.0 mg/kg/injection, schedule: Q01DX001 (ip), vehicle: saline): 111 % of control
- T/C (dose: 100.0 mg/kg/injection, schedule: Q01DX009 (ip), vehicle: saline): 103 % of control
- T/C (dose: 100.0 mg/kg/injection, schedule: Q04DX003 (ip), vehicle: saline): 118 % of control
- T/C (dose: 133.0 mg/kg/injection, schedule: Q04DX003 (ip), vehicle: saline): 124 % of control
- T/C (dose: 200.0 mg/kg/injection, schedule: Q01DX001 (ip), vehicle: saline): 100 % of control
- T/C (dose: 200.0 mg/kg/injection, schedule: Q01DX009 (ip), vehicle: saline): 137 % of control
- T/C (dose: 200.0 mg/kg/injection, schedule: Q04DX003 (ip), vehicle: saline): 122 and 132 % of control
- T/C (dose: 300.0 mg/kg/injection, schedule: Q04DX003 (ip), vehicle: saline): 130 % of control
- T/C (dose: 400.0 mg/kg/injection, schedule: Q01DX001 (ip), vehicle: saline): 112 % of control
- T/C (dose: 400.0 mg/kg/injection, schedule: Q01DX009 (ip), vehicle: saline): 177 % of control [5 of 6 alive]
- T/C (dose: 400.0 mg/kg/injection, schedule: Q04DX003 (ip), vehicle: saline): 139 % of control

Structure (SMILES): O=C(O)c1c([N+](=O)[O-])cc([N+](=O)[O-])c(-c2c([N+](=O)[O-])cc([N+](=O)[O-])cc2[N+](=O)[O-])c1[N+](=O)[O-]
- T/C (dose: 100.0 mg/kg/injection, schedule: Q04DX003 (ip), vehicle: alcohol): 101 % of control [survivor count not shown]
- T/C (dose: 200.0 mg/kg/injection, schedule: Q04DX003 (ip), vehicle: alcohol): 96 % of control [survivor count not shown]

Structure (SMILES): O=[N+]([O-])c1cc([N+](=O)[O-])c(F)c([N+](=O)[O-])c1
- T/C [5]: 94 % of control [survivor count not shown]

Structure (SMILES): NC1CCCCC1.O=P(O)(N(CCCl)CCCl)N1CCCC1
- survivor count (dose: 8.0 mg/kg/injection, schedule: Q01DX Z (ip), vehicle: other): 6 of 6
- T/C (dose: 16.0 mg/kg/injection, schedule: Q01DX Z (ip), vehicle: other): 98 % of control
- T/C (dose: 32.0 mg/kg/injection, schedule: Q01DX Z (ip), vehicle: other): 98 % of control
- T/C (dose: 62.5 mg/kg/injection, schedule: Q01DX Z (ip), vehicle: saline): 98 % of control
- T/C (dose: 64.0 mg/kg/injection, schedule: Q01DX Z (ip), vehicle: other): 117 % of control
- T/C (dose: 125.0 mg/kg/injection, schedule: Q01DX Z (ip), vehicle: saline): 93 % of control
- survivor count (dose: 250.0 mg/kg/injection, schedule: Q01DX Z (ip), vehicle: saline): 0 of 6
- survivor count (dose: 500.0 mg/kg/injection, schedule: Q01DX Z (ip), vehicle: saline): 0 of 6
